In publication PMC6272981 (Molecules, 2016):

Assay: general procedure: Fmoc solid-phase peptide synthesis; Rink Amide MBHA resin (loading capacity = 0.34 mmol/g); HBTU/HOBt/NMM
Conditions: for final HPLC purity: late stage modification step; for final HPLC purity / crude HPLC purity: RP-HPLC on analytical C18 column, 214 nm; for crude HPLC purity / isolated yield: whole synthesis; for isolated yield: overall

Substance | final HPLC purity | crude HPLC purity | isolated yield
Ac-AR[X1]ST-NH2 (SMILES CC(=O)N[C@@H](C)C(=O)N[C@@H](CCCNC(=N)N)C(=O)N[C@@H](CCCCNC(=S)NCCC(=O)O)C(=O)N[C@@H](CO)C(=O)N[C@H](C(N)=O)[C@@H](C)O) | >95% |  | 
Ac-KR[X1]KT-NH2 (linker 1-4 via Suberoyl(Gly)2; SMILES CC(=O)N[C@H]1CCCCNC(=O)CNC(=O)CCCCCCC(=O)NCC(=O)NCCCC[C@@H](C(=O)N[C@H](C(N)=O)[C@@H](C)O)NC(=O)[C@H](CCCCNC(=S)NCCC(=O)O)NC(=O)[C@H](CCCNC(=N)N)NC1=O) | >95% | 34% pure | 41%
Ac-KR[X1]KT-NH2 (linker 1-4 via Suberoyl; SMILES CC(=O)N[C@H]1CCCCNC(=O)CCCCCCC(=O)NCCCC[C@@H](C(=O)N[C@H](C(N)=O)[C@@H](C)O)NC(=O)[C@H](CCCCNC(=S)NCCC(=O)O)NC(=O)[C@H](CCCNC(=N)N)NC1=O) | >95% | 31% pure | 38%

*1 amine or outer side, *2 acyl side, *3 side chain or, on linkers, in order; H or OH if unused. Bridges are numbered along the chain shown (N, C = ends). [ ]: non-standard residue; d: D form. Suberoyl(Gly)2 = O=C(CCCCCCC(=O)NCC(=O)[*:2])NCC(=O)[*:1]; X1 = O=C(O)CCNC(=S)NCCCC[C@H](N[*:1])C(=O)[*:2]; Suberoyl = O=C(CCCCCCC(=O)[*:2])[*:1]
